# Measured values as given in article PMC7414107.
# Chains of the proteins cited; added tags and fusions are not shown.
# UniProt Q80VP1: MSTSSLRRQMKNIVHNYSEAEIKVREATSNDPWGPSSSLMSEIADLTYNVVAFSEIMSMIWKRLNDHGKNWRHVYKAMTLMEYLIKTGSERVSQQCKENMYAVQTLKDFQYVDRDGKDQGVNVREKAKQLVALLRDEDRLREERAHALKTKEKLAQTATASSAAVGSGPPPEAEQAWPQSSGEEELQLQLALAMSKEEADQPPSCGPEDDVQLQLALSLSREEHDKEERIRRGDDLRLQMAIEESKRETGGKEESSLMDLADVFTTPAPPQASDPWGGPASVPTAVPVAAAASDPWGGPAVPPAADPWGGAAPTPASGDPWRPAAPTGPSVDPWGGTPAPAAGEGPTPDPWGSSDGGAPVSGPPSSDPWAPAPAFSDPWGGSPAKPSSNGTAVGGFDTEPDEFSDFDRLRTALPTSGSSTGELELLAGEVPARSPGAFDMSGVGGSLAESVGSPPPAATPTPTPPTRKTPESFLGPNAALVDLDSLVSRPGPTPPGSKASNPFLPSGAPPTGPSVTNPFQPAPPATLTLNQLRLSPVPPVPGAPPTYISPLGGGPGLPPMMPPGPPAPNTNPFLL
# These are yes or no findings as the source states them, for the method shown. Binding seen in cells or lysates may run through a third protein. Some binding calls cover weakened binding; strength is not graded here.
# B1: E3 ubiquitin-protein ligase Ring Finger Protein 170 (RNF170) (enzyme, UniProt Q8CBG9 1-286)
# chain: MQRYWRFQDNKIQDICFGVLGESWIQRPVMARYYSEGQSLQQDDSFIEGVSDQVLVAVVVSLALTATLLYALLRNVQQNIHPENQELVRVLREQFQTEQDVPAPARQQFYTEMYCPICLHQASFPVETNCGHLFCGSCIIAYWRYGSWLGAISCPICRQTVTLLLTVFGEDDQSQDVIRLRQDVNDYNRRFSGQPRSIMERIMDLPTLLRHAFREVFSVGGLFWMFRIRIMLCLMGAFFYLISPLDFVPEALFGILGFLDDFFVIFLLLIYISIMYREVITQRLTR
# B2: erlin 1 (protein, UniProt Q91X78 1-348)
# chain: MNMTQARLLVAAVVGLVAILLYASIHKIEEGHLAVYYRGGALLTSPSGPGYHIMLPFITTFRSVQTTLQTDEVKNVPCGTSGGVMIYIDRIEVVNMLAPYAVFDIVRNYTADYDKTLIFNKIHHELNQFCSAHTLQEVYIELFDQIDENLKQALQKDLNTMAPGLTIQAVRVTKPKIPEAIRRNFELMEAEKTKLLIAAQKQKVVEKEAETERKRAVIEAEKIAQVAKIRFQQKVMEKETEKRISEIEDAAFLAREKAKADAEYYAAHKYATSNKHKLTPEYLELKKYQAIASNSKIYFGSNIPSMFVDSSCALKYSDGRTGREDSLPPEEAREPSGESPIQNKENAG
# B3: erlin 2 (protein, UniProt Q8BFZ9 1-340)
# chain: MAQLGAVVAVASSFFCASLFSAVHKIEEGHIGVYYRGGALLTSTSGPGFHLMLPFITSYKSVQTTLQTDEVKNVPCGTSGGVMIYFDRIEVVNFLVPNAVYDIVKNYTADYDKALIFNKIHHELNQFCSVHTLQEVYIELFDQIDENLKLALQQDLTSMAPGLVIQAVRVTKPNIPEAIRRNYELMESEKTKLLIAAQKQKVVEKEAETERKKALIEAEKVAQVAEITYGQKVMEKETEKKISEIEDAAFLAREKAKADAECYTALKIAEANKLKLTPEYLQLMKYKAIASNSKIYFGKDIPNMFMDSAGGLGKQFEGLSDDKLGFGLEDEPLEAPTKEN
# Biological target: epsin 1 (mouse (endogenous in MAECs)) (UniProt Q80VP1)
# Test: co-IP; endogenous proteins in MAEC lysates; IP with the epsin 1 antibody or the IP3R1 antibody, western blot; cells treated with 100 µg/mL oxLDL, 500 µg/mL cholesterol crystal or 50 µM 7-KC for 30 min (Fig. 1c-f), lysates with or without 10 µM USP2 (Fig. 3g), or oxLDL 4 h with 10 µM MG132 (Fig. 3m)
row,Binder,binding
1,B1,binds
2,B2,binds
3,B3,binds
